From the supplement of paper PMC10849652
The list shows a part of the results.

Sequences of proteins named here, by UniProt entry; tags and fusion partners are left off. A change or cut given only in a name is not applied to a line headed by its entry.
UniProt Q9Y225: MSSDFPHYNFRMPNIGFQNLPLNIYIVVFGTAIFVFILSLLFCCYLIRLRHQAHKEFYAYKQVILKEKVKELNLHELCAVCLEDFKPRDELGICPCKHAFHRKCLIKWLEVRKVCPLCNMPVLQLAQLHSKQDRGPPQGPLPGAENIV
UniProt Q6NTF9: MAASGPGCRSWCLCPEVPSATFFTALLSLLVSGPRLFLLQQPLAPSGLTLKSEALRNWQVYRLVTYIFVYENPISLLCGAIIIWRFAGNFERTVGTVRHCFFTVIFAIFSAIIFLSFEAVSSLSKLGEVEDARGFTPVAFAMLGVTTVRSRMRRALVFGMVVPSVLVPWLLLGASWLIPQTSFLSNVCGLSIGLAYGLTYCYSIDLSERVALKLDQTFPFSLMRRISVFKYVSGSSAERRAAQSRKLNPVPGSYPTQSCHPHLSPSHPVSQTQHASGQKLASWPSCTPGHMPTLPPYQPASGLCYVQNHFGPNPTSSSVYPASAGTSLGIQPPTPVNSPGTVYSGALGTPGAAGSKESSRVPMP
UniProt Q96K19: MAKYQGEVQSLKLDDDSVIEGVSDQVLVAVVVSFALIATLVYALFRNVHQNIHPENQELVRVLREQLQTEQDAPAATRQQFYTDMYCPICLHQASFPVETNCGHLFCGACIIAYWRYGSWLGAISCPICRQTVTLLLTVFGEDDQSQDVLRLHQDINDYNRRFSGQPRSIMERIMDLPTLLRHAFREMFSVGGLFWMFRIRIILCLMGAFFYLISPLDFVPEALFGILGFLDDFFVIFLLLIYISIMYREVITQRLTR
UniProt P09455: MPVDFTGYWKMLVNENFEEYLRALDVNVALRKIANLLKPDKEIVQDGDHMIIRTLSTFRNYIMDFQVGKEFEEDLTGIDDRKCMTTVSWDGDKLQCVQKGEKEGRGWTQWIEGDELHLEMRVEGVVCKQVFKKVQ
UniProt Q9H6W3: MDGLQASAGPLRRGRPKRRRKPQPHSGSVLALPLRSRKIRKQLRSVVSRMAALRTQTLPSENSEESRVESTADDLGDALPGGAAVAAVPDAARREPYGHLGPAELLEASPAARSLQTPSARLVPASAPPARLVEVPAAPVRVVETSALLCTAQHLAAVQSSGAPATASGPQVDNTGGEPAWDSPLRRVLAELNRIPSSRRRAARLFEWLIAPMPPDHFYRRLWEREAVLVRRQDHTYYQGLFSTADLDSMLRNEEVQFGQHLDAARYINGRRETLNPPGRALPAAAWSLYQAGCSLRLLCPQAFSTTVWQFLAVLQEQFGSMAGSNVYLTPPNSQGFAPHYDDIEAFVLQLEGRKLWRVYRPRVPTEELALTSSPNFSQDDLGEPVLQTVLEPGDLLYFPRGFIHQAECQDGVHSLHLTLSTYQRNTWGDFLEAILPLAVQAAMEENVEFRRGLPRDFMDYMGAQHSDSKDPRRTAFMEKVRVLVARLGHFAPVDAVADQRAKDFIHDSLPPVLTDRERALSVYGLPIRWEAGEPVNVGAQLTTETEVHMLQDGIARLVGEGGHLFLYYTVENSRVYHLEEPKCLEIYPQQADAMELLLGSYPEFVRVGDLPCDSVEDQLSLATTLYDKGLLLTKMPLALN
UniProt Q15493: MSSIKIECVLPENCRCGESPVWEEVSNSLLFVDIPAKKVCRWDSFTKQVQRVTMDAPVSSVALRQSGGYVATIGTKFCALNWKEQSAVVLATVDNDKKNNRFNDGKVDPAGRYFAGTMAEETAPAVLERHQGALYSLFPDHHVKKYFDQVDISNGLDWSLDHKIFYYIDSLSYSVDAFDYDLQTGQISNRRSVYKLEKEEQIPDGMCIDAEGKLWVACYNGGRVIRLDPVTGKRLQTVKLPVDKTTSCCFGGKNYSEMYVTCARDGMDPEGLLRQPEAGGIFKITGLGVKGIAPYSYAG
UniProt Q8WU17: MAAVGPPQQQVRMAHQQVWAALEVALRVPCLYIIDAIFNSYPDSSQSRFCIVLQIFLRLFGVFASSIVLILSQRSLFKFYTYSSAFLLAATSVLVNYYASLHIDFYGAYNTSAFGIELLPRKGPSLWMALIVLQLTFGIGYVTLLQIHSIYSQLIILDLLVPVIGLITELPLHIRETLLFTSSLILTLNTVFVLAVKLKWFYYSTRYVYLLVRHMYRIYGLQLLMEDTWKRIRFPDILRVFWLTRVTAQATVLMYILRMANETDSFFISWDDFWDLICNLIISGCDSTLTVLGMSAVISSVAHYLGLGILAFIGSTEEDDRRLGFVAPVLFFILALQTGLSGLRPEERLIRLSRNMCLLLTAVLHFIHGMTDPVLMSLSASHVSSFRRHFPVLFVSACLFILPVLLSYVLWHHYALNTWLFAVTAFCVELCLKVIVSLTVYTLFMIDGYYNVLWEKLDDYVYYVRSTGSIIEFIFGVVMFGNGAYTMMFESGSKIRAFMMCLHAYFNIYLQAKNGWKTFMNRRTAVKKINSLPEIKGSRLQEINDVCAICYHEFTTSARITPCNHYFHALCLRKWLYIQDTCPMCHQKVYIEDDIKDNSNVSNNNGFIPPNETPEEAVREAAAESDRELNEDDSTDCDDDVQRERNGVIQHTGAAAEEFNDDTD
UniProt Q06587: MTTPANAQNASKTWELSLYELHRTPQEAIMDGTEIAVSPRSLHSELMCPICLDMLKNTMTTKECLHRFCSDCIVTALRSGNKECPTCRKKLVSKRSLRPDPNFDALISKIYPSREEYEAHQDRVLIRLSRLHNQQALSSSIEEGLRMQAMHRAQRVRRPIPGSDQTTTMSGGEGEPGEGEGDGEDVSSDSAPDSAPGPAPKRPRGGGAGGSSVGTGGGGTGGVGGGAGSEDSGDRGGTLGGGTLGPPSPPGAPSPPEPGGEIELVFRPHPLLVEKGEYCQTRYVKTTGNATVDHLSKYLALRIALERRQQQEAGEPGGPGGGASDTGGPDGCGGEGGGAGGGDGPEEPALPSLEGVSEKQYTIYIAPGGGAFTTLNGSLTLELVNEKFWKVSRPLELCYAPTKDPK
UniProt P34096: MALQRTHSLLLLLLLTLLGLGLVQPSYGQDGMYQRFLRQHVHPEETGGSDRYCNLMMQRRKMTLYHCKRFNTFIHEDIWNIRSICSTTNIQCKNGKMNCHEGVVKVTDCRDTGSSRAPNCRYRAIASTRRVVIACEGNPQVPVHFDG
UniProt Q9ULI2: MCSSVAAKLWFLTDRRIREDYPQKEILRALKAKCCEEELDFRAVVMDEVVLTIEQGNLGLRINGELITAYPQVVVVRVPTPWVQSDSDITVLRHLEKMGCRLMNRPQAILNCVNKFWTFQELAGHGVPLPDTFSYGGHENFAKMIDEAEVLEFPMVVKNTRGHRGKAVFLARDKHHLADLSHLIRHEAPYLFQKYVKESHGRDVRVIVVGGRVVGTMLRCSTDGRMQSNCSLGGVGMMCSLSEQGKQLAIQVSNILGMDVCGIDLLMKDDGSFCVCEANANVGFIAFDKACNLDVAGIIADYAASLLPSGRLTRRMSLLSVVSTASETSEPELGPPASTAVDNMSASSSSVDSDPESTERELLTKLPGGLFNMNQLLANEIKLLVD
UniProt Q86XS8: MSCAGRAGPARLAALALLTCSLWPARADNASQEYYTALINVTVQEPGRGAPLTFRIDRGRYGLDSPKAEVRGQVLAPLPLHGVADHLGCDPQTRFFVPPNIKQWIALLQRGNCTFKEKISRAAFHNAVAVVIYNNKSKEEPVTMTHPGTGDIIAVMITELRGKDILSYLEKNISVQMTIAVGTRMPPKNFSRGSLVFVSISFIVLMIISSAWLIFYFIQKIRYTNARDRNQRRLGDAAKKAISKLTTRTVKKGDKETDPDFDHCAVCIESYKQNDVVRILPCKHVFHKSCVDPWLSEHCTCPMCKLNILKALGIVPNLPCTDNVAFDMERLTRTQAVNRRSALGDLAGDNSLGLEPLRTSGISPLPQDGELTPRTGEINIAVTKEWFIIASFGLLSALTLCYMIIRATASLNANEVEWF
UniProt Q6PCD5: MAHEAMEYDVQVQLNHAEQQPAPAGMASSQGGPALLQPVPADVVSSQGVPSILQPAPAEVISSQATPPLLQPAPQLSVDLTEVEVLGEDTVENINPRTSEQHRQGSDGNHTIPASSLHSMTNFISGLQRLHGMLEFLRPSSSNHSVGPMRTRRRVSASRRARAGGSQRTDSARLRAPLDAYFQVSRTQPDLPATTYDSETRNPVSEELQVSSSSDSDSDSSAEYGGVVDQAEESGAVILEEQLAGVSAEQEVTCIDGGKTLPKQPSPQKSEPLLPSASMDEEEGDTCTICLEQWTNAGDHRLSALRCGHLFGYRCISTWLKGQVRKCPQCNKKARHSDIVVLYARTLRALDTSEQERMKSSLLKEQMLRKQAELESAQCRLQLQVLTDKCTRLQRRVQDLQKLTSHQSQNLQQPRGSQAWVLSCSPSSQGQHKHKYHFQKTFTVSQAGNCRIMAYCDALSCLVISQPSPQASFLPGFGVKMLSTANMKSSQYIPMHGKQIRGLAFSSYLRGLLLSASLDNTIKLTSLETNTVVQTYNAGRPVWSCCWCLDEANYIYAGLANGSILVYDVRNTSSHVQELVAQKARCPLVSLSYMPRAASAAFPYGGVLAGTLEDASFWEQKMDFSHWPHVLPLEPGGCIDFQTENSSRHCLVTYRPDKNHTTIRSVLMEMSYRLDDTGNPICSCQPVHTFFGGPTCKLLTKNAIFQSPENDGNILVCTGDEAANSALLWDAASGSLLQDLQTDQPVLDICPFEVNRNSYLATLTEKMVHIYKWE
UniProt Q8WVD5: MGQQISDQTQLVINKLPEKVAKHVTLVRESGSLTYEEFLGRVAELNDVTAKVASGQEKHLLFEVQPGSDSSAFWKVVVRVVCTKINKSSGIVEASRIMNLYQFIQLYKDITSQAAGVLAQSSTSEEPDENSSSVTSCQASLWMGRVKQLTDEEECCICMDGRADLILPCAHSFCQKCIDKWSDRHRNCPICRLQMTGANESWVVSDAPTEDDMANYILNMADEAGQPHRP
UniProt Q6ZNA4: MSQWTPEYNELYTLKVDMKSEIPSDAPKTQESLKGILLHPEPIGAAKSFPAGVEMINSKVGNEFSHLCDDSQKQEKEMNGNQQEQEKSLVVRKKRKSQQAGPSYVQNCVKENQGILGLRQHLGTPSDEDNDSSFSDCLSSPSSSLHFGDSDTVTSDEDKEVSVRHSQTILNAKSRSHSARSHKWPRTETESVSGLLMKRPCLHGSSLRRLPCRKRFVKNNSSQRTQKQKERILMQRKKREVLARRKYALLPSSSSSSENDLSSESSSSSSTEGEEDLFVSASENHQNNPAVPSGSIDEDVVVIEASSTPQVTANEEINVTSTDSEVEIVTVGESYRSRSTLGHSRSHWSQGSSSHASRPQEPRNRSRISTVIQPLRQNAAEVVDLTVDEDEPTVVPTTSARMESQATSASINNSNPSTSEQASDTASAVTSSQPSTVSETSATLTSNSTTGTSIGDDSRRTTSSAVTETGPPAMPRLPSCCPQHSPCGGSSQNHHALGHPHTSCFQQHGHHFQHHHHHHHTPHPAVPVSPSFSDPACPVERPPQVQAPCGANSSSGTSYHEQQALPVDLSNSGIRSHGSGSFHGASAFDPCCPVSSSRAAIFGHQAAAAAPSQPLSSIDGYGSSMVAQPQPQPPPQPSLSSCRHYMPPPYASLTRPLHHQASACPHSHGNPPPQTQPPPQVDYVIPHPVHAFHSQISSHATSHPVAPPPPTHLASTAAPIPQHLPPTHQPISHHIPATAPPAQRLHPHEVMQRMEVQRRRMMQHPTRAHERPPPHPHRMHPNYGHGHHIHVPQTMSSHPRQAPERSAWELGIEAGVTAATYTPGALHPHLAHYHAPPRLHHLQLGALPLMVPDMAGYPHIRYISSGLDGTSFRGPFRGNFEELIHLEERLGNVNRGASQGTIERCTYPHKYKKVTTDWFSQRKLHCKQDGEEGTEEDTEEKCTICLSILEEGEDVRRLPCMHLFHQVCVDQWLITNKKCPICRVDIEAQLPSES
UniProt P48382: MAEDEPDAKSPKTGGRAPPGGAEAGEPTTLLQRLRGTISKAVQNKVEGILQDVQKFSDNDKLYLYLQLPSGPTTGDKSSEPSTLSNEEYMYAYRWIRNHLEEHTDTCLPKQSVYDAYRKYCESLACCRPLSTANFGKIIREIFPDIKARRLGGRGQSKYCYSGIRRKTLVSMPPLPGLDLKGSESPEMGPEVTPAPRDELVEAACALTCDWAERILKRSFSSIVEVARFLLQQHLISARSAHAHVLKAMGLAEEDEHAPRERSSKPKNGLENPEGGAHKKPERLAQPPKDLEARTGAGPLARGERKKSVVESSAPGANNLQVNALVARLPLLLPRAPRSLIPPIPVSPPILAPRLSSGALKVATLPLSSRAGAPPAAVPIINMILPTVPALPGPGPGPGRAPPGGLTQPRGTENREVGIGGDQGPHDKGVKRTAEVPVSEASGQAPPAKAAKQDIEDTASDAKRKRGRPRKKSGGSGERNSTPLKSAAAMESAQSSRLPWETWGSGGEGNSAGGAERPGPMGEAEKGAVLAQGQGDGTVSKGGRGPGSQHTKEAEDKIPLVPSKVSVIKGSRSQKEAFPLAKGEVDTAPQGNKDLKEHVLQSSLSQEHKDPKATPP

Each target was assayed with CNc1nc(-c2ccc3c(N)n[nH]c3c2)cc(N2C[C@@H](C(=O)NC3CCCCC3)CC[C@H]2C)n1 (assay: log2 fold change, soluble protein after heating vs DMSO (PISA); higher = thermal stabilisation; K562 cells, 10 uM, 30 min; active = over 0.2 and 3.5 SD of the protein, either way, in both replicates (recomputed)).
Method in brief: (§1)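 Soluble protein was defined as the supernatant after 21,000xg for 90 min. It came from K562 cells at 2×10^6 cells/mL given 10 μM compound for 30 min, heated in aliquots for 3 min across 48°C-58°C, pooled, and extracted in PBS with 0.5% NP-40 at 4°C, and was quantified by TMTpro 16plex LC-MS/MS with equalised channel sums. Thermal stability against control samples, from duplicates, is reported as log2 fold change.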

log2 fold change, inactive:
RNF24 isoform 2 (UniProt Q9Y225) -0.019, RNF169 (UniProt Q8NCN4) -0.088, RECQL5 (UniProt O94762) -0.172, RHBDD2 isoform 2 (UniProt Q6NTF9) -0.101, RNF170 (UniProt Q96K19) 0.037, RCL1 (UniProt Q5VZU2) 0.017, RBP1 isoform 3 (UniProt P09455) -0.009

What follows are targets tested with COC(=O)N[C@@H](C)CNc1nccc(-c2cn(C(C)C)nc2-c2cc(Cl)cc(NS(C)(=O)=O)c2F)n1 [encorafenib] in the same assay as above.
Method in brief: as §1

log2 fold change, inactive:
RIOX1 (UniProt Q9H6W3) 0.157, RNF24 isoform 2 (UniProt Q9Y225) 0.198, RGN (UniProt Q15493) -0.031, RNF11 (UniProt Q9Y3C5) -0.043, RFX3 (UniProt P48380) -0.032, RNF139 (UniProt Q8WU17) 0.054, RBMY1E (UniProt A6NEQ0) 0.182, RING1 (UniProt Q06587) 0.08, RHBDD2 isoform 2 (UniProt Q6NTF9) -0.048, RNASE4 (UniProt P34096) 0.018, RNF170 (UniProt Q96K19) 0.067, RGS14 (UniProt O43566) -0.336, RNF185 (UniProt Q96GF1) -0.094, RIMKLB (UniProt Q9ULI2) -0.02, RNF130 (UniProt Q86XS8) -0.022

These targets were tested with COC(=O)[C@H](CCSC)NC(=O)C1=C(C=C(C=C1)NC[C@H](CS)N)C2=CC=CC=C2 in the same assay as above.
Method in brief: as §1

log2 fold change, inactive:
RMDN2 isoform 2 (UniProt Q96LZ7) -0.206, RFWD3 (UniProt Q6PCD5) -0.029, RNF24 isoform 2 (UniProt Q9Y225) 0.109, RGN (UniProt Q15493) -0.027, RNF139 (UniProt Q8WU17) 0.04, RING1 (UniProt Q06587) -0.086, RECQL5 (UniProt O94762) 0.093, RNASE4 (UniProt P34096) 0.102, RNF170 (UniProt Q96K19) -0.186, RGS14 (UniProt O43566) 0.11, RNF185 (UniProt Q96GF1) 0.125, RGP1 (UniProt Q92546) 0.107, RNF141 (UniProt Q8WVD5) 0.121

The targets below were run with COC1=CC=C(C=C1)CN2C=CC3=C2C=C(C=C3)C(=O)NO in the same assay as above.
Method in brief: as §1

log2 fold change, inactive:
RHD (UniProt Q02161) 0.078, RMDN2 isoform 2 (UniProt Q96LZ7) 0.008, RNF24 isoform 2 (UniProt Q9Y225) -0.05, RNF11 (UniProt Q9Y3C5) -0.168, RERE (UniProt Q9P2R6) -0.23, RNF139 (UniProt Q8WU17) 0.013, RBMY1E (UniProt A6NEQ0) 0.078, RING1 (UniProt Q06587) 0.058, RBM48 isoform 2 (UniProt Q5RL73) -0.046, RHBDD2 isoform 2 (UniProt Q6NTF9) 0.076, RNASE4 (UniProt P34096) -0.021, RNF170 (UniProt Q96K19) 0.048, RIPOR1 isoform 4 (UniProt Q6ZS17) -0.293, RIMKLB (UniProt Q9ULI2) -0.14, RNF141 (UniProt Q8WVD5) -0.22, RIC8B isoform 1 (UniProt Q9NVN3) -0.02, RNF130 (UniProt Q86XS8) -0.106, RIT1 isoform 3 (UniProt Q92963) -0.083, RNF111 isoform 3 (UniProt Q6ZNA4) -0.368, RFX5 (UniProt P48382) -0.034

What follows are targets tested with CON(C)C(=O)N1N=C(c2cc(F)ccc2F)S[C@@]1(CCCN)c1ccccc1 [filanesib] in the same assay as above.
Method in brief: as §1

log2 fold change, inactive:
RFWD3 (UniProt Q6PCD5) -0.008, RGN (UniProt Q15493) 0.098, RERE (UniProt Q9P2R6) 0.018, RFX3 (UniProt P48380) -0.041, RNF139 (UniProt Q8WU17) -0.043, RING1 (UniProt Q06587) -0.004, RBM48 isoform 2 (UniProt Q5RL73) -0.049, RHOXF2B (UniProt P0C7M4) -0.259, RNASE4 (UniProt P34096) -0.072, RGP1 (UniProt Q92546) -0.314, RIMKLB (UniProt Q9ULI2) -0.137, RNF141 (UniProt Q8WVD5) 0.04, RFX5 (UniProt P48382) 0.101
